Source: the supplement of paper PMC6411743
± gives the standard deviation of the averaged measurements. Only a part is listed here, and it is no random draw. Small differences around the control level are noise.

Protein sequences, listed by entry. Tags and fused reporters are not part of them. Lines headed by an entry give the natural chain unless they say otherwise; changes in a name come on top.
UniProt Q96K58: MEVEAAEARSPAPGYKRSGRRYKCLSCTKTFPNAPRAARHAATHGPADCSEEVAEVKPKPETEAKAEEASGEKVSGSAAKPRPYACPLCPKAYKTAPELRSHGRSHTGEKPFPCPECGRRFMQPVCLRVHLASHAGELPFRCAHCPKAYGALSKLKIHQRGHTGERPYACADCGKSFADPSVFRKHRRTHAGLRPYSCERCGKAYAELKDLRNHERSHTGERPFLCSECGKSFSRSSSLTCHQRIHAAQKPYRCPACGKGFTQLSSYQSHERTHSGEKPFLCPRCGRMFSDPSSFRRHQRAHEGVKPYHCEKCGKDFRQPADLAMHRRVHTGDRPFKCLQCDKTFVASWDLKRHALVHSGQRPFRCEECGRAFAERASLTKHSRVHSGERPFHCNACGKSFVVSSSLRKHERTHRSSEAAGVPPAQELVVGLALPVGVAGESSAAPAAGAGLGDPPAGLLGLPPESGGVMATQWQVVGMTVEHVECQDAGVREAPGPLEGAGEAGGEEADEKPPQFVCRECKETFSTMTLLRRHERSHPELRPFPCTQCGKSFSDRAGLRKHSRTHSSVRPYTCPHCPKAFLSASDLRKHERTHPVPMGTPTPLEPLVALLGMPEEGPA
UniProt Q96D53: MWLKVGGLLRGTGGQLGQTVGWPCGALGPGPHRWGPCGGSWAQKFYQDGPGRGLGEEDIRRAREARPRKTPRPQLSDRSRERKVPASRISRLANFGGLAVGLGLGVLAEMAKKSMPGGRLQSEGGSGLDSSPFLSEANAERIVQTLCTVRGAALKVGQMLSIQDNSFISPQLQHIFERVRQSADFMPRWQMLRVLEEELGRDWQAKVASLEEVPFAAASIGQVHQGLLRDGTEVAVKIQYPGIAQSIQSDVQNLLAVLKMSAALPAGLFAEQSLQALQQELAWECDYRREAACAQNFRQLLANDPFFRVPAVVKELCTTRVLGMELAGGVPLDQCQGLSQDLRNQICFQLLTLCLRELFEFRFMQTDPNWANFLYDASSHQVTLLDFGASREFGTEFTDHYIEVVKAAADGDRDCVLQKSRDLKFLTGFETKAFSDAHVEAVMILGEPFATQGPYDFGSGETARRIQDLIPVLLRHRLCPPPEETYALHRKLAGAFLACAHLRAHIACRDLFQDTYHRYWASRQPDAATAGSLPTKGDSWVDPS
UniProt Q96S66: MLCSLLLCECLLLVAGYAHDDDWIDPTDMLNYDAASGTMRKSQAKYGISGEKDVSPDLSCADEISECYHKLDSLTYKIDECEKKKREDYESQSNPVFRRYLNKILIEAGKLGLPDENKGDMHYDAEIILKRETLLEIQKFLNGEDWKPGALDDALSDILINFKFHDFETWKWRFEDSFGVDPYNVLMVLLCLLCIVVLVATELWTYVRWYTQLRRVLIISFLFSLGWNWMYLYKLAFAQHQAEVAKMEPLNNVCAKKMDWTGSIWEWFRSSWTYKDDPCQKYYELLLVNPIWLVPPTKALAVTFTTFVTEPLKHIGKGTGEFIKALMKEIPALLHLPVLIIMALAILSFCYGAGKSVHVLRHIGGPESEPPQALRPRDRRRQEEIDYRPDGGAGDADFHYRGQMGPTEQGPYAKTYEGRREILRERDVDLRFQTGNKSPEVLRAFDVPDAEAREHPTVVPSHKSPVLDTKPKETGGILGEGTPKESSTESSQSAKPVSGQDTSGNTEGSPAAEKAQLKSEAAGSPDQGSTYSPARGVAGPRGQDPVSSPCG
UniProt Q96D05: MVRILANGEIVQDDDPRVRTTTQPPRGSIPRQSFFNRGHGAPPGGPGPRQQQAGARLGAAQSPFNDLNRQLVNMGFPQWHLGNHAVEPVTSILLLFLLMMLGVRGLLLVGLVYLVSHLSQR
UniProt Q96GX2: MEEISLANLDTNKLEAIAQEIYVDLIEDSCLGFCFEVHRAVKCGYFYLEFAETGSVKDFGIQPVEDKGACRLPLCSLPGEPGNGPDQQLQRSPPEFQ
UniProt Q96P47: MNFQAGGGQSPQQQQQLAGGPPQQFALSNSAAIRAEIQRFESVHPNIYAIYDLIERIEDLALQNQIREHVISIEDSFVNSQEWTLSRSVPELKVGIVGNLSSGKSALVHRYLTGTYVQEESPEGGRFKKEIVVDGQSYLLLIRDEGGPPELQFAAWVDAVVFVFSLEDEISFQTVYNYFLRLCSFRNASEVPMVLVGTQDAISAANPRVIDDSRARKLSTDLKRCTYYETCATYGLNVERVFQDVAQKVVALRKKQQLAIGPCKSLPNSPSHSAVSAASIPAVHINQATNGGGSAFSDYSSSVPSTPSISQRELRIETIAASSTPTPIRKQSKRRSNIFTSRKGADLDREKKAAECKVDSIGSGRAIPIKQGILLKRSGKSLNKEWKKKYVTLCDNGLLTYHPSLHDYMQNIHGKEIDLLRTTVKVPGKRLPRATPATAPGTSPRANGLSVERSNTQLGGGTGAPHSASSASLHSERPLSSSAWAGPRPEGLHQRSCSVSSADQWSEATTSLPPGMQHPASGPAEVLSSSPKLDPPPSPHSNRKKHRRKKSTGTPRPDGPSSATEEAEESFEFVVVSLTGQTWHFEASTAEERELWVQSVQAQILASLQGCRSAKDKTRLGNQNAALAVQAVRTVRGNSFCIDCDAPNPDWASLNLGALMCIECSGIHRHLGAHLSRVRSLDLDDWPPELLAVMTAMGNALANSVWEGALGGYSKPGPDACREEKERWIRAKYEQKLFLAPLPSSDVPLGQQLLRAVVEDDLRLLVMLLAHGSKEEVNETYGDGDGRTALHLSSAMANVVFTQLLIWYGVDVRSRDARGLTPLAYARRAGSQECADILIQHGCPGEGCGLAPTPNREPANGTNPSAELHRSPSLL
UniProt Q96GX9: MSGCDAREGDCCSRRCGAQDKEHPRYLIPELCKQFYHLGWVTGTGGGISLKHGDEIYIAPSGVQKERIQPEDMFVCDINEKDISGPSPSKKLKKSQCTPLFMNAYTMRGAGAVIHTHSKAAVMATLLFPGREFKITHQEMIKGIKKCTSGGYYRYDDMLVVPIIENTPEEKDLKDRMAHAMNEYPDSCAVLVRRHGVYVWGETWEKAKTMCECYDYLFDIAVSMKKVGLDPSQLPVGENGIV
UniProt Q96FJ2, whole entry: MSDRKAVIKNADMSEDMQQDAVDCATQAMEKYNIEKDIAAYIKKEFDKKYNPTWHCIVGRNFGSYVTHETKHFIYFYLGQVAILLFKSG
UniProt Q96ER9: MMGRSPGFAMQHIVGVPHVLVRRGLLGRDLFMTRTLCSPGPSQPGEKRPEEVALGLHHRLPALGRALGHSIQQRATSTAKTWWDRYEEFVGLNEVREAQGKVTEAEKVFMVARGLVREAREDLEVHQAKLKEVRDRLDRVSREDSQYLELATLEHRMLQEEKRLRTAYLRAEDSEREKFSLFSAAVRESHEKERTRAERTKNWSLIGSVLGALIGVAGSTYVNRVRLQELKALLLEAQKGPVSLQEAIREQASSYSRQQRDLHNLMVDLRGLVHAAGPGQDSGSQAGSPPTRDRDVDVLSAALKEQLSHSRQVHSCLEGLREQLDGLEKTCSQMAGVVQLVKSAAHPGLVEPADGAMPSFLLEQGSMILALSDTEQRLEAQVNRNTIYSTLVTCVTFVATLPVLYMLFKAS
UniProt Q96E09: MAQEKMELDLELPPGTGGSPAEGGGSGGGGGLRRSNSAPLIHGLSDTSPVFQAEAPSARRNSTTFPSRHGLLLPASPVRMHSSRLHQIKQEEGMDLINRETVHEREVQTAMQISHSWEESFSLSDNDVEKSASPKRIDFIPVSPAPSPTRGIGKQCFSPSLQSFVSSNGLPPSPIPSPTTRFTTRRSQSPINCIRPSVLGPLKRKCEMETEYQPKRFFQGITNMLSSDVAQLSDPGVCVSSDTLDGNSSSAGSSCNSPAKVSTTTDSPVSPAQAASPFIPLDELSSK
UniProt Q96HR8: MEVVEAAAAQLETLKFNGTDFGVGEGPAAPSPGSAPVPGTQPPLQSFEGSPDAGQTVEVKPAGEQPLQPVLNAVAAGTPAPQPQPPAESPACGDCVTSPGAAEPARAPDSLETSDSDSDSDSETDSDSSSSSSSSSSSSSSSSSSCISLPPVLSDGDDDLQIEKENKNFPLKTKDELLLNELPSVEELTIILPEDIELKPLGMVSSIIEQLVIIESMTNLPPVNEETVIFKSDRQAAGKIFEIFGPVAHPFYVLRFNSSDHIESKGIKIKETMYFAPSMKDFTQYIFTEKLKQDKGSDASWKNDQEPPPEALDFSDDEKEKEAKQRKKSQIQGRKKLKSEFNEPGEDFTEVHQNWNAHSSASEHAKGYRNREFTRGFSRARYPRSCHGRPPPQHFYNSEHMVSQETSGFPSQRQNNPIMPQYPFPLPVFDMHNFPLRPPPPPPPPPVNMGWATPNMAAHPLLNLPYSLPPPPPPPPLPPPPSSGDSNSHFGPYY
UniProt Q96MH6: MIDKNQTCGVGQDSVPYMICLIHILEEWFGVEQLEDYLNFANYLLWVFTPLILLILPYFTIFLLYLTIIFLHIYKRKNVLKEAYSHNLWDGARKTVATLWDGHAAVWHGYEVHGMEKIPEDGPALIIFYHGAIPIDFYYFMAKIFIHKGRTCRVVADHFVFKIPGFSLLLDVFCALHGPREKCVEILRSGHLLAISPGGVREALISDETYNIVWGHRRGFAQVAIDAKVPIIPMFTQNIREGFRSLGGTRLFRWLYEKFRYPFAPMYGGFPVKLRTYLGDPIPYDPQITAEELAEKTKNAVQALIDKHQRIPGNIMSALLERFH
UniProt Q96SU4: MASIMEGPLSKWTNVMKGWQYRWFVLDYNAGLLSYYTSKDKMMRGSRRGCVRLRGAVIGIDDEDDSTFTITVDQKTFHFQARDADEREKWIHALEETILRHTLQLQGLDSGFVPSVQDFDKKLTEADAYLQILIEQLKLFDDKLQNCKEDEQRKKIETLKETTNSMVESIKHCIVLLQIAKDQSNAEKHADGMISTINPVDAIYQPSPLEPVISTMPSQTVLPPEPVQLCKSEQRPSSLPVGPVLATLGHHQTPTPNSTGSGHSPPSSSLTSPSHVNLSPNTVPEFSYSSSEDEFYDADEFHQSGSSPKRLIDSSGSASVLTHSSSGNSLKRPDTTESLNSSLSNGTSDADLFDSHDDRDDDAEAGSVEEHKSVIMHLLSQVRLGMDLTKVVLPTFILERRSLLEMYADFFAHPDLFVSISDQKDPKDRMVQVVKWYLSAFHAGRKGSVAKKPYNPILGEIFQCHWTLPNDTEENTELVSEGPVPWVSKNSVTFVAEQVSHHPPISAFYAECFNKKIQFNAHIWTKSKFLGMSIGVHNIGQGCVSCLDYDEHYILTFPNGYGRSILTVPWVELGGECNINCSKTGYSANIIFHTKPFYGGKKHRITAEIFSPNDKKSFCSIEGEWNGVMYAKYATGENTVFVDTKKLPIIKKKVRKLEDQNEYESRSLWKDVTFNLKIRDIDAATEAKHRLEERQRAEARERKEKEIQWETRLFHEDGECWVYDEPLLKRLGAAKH
UniProt Q96PE7: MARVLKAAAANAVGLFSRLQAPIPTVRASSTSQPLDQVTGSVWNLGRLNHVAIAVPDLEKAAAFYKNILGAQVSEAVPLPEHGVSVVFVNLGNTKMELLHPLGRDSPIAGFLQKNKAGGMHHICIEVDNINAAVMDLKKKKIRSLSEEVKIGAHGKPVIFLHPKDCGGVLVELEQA
UniProt Q96HI0: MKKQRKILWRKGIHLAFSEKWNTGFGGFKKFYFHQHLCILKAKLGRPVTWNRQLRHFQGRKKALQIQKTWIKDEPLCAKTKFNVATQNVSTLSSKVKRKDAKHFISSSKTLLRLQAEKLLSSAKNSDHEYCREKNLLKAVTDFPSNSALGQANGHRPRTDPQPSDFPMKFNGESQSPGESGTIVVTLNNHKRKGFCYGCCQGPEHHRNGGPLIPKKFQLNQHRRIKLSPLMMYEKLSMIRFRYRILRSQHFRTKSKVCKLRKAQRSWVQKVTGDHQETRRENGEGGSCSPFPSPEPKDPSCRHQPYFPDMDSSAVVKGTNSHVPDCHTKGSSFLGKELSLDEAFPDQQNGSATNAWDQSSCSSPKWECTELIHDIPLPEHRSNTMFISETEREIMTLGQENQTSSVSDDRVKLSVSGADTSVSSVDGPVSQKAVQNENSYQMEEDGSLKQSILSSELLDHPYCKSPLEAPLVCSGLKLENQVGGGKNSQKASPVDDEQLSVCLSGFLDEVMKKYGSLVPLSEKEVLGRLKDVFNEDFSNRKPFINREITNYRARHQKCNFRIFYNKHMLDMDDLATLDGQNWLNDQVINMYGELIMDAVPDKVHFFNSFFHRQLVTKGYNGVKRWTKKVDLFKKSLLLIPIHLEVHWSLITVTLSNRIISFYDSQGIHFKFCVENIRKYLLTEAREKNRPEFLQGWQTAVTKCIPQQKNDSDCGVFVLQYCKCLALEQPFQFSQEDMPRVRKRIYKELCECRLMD
UniProt Q96E11: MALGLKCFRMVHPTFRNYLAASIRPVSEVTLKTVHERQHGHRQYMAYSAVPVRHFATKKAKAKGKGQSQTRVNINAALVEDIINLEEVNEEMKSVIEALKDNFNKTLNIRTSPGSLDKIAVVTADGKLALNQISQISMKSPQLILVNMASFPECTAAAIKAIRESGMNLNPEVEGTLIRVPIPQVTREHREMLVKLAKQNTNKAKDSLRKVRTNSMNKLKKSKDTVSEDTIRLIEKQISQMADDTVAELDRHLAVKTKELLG

Compound: Nc1ncnc2c1ncn2[C@@H]1O[C@H](COP(=O)(O)OP(=O)(O)OP(=O)(O)O)[C@@H](O)[C@H]1O [adenosine triphosphate]
Test: NP40-soluble protein abundance relative to vehicle (solubility fold change) (ratio); higher = more soluble protein in presence of ATP
Procedure, shortened: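 Values are fold changes against the detergent-processed vehicle, based on vsn-normalised intensities. Jurkat crude lysate was treated at eight concentrations from 0.1 to 10 mM (10 min at room temperature, then 3 min at 37 °C), solubilised with 0.8% NP40 and benzonase, ultracentrifuged and analysed by TMT-labelled LC-MS/MS over three independent experiments.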

Target	NP40-soluble protein abundance (concentration: 0.1mM)	NP40-soluble protein abundance (concentration: 0.5mM)
UniProt Q96GC9	0.994 ± 0.028	0.951 ± 0.057
DDRGK1 (UniProt Q96HY6)	0.941 ± 0.09	0.949 ± 0.056
IFT140 (UniProt Q96RY7)	1.04 ± 0.065	1.04 ± 0.11
MMAB (UniProt Q96EY8)	0.991 ± 0.028	0.954 ± 0.012
UniProt Q96DC7 and related entries	1.08 ± 0.14	0.974 ± 0.08
EDC3 (UniProt Q96F86)	1.04 ± 0.064	1.09 ± 0.085
SMG1 (UniProt Q96Q15)	1.03 ± 0.039	1.02 ± 0.019
UniProt Q96K58 and related entries	1.03 ± 0.032	0.965 ± 0.04
SLC7A6OS (UniProt Q96CW6)	0.982 ± 0.061	0.944 ± 0.049
UniProt Q96D53	1.09 ± 0.034	1.14 ± 0.039
PRRC1 (UniProt Q96M27)	0.968 ± 0.032	0.954 ± 0.019
UniProt Q96HD1 and related entries	1.08 ± 0.074	1.04 ± 0.11
UniProt Q96CU9 and related entries	1.02 ± 0.048	1.04 ± 0.06
WDR89 (UniProt Q96FK6)	1.1 ± 0.074	1.11 ± 0.057
UniProt Q96F44 and related entries	1.06 ± 0.034	1.06 ± 0.051
DHTKD1 (UniProt Q96HY7)	1.13 ± 0.094	1.03 ± 0.043
UniProt Q96EH3	1.12 ± 0.043	1.07 ± 0.082
UniProt Q96BW9-2|Q96BW9-3|Q96BW9	1.026 ± 0.0049	1.15 ± 0.028
PPWD1 (UniProt Q96BP3)	1.01 ± 0.042	1.03 ± 0.044
PCMTD1 (UniProt Q96MG8)	0.963 ± 0.043	0.967 ± 0.077
FAHD2A (UniProt Q96GK7)	1.06 ± 0.048	1.06 ± 0.056
UniProt Q96BN2	0.969 ± 0.066	0.9 ± 0.12
UniProt Q96MT7-2	1.03 ± 0.059	1.01 ± 0.025
AJUBA (UniProt Q96IF1)	1.01 ± 0.12	0.994 ± 0.029

Target	NP40-soluble protein abundance (concentration: 0.1mM)	NP40-soluble protein abundance (concentration: 0.5mM)
PURB (UniProt Q96QR8)	0.998 ± 0.029	1.02 ± 0.027
UniProt Q96L73 and related entries	0.892 ± 0.1	1.06 ± 0.14
ATG2B (UniProt Q96BY7)	1 ± 0.06	0.887 ± 0.079
UniProt Q96EY5	1.06 ± 0.06	1.06 ± 0.061
HEXIM2 (UniProt Q96MH2)	0.92 ± 0.19	0.957 ± 0.081
UniProt Q96BN8	1 ± 0.025	0.973 ± 0.035
NUDCD1 (UniProt Q96RS6)	1.06 ± 0.087	1.06 ± 0.052
DHRS1 (UniProt Q96LJ7)	1.05 ± 0.069	1.07 ± 0.036
SIPA1 (UniProt Q96FS4)	0.909 ± 0.046	0.911 ± 0.017
PIGS (UniProt Q96S52)	1.02 ± 0.046	1.06 ± 0.048
UniProt Q96L92 and related entries	1.03 ± 0.069	1.01 ± 0.051
EAF1 (UniProt Q96JC9)	0.904 ± 0.038	0.908 ± 0.019
UniProt Q96S66 and related entries	1.01 ± 0.058	1 ± 0.052
UniProt Q96KF7	1.06 ± 0.071	0.994 ± 0.071
UniProt Q96L91 and related entries	0.976 ± 0.057	1.03 ± 0.079
UniProt Q96S97 and related entries	1.08 ± 0.022	1.05 ± 0.059
CCDC127 (UniProt Q96BQ5)	0.861 ± 0.14	0.905 ± 0.16
UniProt Q96EA4 and related entries	0.941 ± 0.08	0.954 ± 0.022
UniProt Q96D05 and related entries	0.879 ± 0.16	0.813 ± 0.27
TUBGCP3 (UniProt Q96CW5)	0.994 ± 0.1	1.03 ± 0.077
UniProt Q96KC2	1.02 ± 0.011	1.05 ± 0.13
UniProt Q96RL7-4|Q96RL7 and related entries	1.06 ± 0.072	1.05 ± 0.027
UniProt Q96D71 and related entries	1.03 ± 0.018	1.04 ± 0.032
ATXN7L3B (UniProt Q96GX2)	0.941 ± 0.1	0.83 ± 0.18

Target	NP40-soluble protein abundance (concentration: 0.1mM)	NP40-soluble protein abundance (concentration: 0.5mM)
ADO (UniProt Q96SZ5)	0.986 ± 0.037	0.975 ± 0.062
UniProt Q96BT7 and related entries	1.11 ± 0.056	1.09 ± 0.057
UniProt Q96KA5 and related entries	1 ± 0.047	1 ± 0.066
VPS35 (UniProt Q96QK1)	1.02 ± 0.069	1 ± 0.013
UniProt Q96HA7 and related entries	1 ± 0.065	0.986 ± 0.021
PHF12 (UniProt Q96QT6)	1.04 ± 0.018	1.03 ± 0.016
UniProt Q96P47 and related entries	0.985 ± 0.056	1.06 ± 0.097
UniProt Q96MX0 and related entries	0.845 ± 0.1	0.845 ± 0.2
LENG1 (UniProt Q96BZ8)	0.946 ± 0.08	0.86 ± 0.11
UniProt Q96EM0	1.07 ± 0.15	1.15 ± 0.13
CCDC43 (UniProt Q96MW1)	0.97 ± 0.037	0.927 ± 0.058
UniProt Q96PE3 and related entries	1.04 ± 0.082	1.02 ± 0.064
UniProt Q96GX9 and related entries	1.046 ± 0.0022	1.02 ± 0.05
OMA1 (UniProt Q96E52)	1.07 ± 0.12	1.08 ± 0.14
UniProt Q96GX5 and related entries	1.02 ± 0.05	1.01 ± 0.05
UniProt Q96FJ2	0.889 ± 0.12	0.896 ± 0.14
UniProt Q96GY0	0.924 ± 0.069	0.874 ± 0.061
UniProt Q96JK2 and related entries	1.01 ± 0.018	0.999 ± 0.045
UniProt Q96G74 and related entries	1.04 ± 0.014	1.02 ± 0.065
SFXN2 (UniProt Q96NB2)	0.993 ± 0.015	1.07 ± 0.041
LRRC58 (UniProt Q96CX6)	0.961 ± 0.018	0.953 ± 0.033
ZFP91 (UniProt Q96JP5)	1.06 ± 0.095	0.988 ± 0.026
CCDC51 (UniProt Q96ER9)	1.01 ± 0.017	0.991 ± 0.021
UniProt Q96ED9 and related entries	0.956 ± 0.04	0.932 ± 0.15

Target	NP40-soluble protein abundance (concentration: 0.1mM)	NP40-soluble protein abundance (concentration: 0.5mM)
UniProt Q96G23	0.983 ± 0.017	0.976 ± 0.066
CDKN2AIPNL (UniProt Q96HQ2)	0.93 ± 0.09	0.824 ± 0.3
FAM122A (UniProt Q96E09)	1 ± 0.09	0.952 ± 0.092
UniProt Q96BU1 and related entries	0.983 ± 0.16	0.975 ± 0.17
UniProt Q96S55 and related entries	1.05 ± 0.014	1.03 ± 0.047
UniProt Q96QU8 and related entries	1.029 ± 0.0063	1.03 ± 0.057
UniProt Q96BR5	0.978 ± 0.052	0.981 ± 0.04
UniProt Q96Q05-3|Q96Q05 and related entries	1.019 ± 0.0098	0.991 ± 0.037
UniProt Q96RU2-2	1 ± 0.11	1.01 ± 0.099
ARL8A (UniProt Q96BM9)	1.06 ± 0.11	1.01 ± 0.028
NARS2 (UniProt Q96I59)	1.07 ± 0.084	1.01 ± 0.073
UniProt Q96F07-2|E7EVJ5	1.05 ± 0.034	0.995 ± 0.014
UniProt Q96ST2 and related entries	0.9663 ± 0.0096	0.95 ± 0.063
UniProt Q96JY6 and related entries	0.996 ± 0.071	0.921 ± 0.023
UniProt Q96HR8 and related entries	1.03 ± 0.041	1.15 ± 0.056
UniProt Q96T37-3|A0A087WWP4|Q96T37 and related entries	1.02 ± 0.044	1.06 ± 0.027
UniProt Q96FC9 and related entries	1.07 ± 0.073	0.922 ± 0.051
UniProt Q96IZ7 and related entries	1.1 ± 0.035	1.44 ± 0.092
PLEKHF1 (UniProt Q96S99)	1.03 ± 0.075	1 ± 0.041
UniProt Q96P48 and related entries	1.07 ± 0.053	1.05 ± 0.056
UniProt Q96K76-4	1.04 ± 0.075	1.04 ± 0.081
Sirt1 (UniProt Q96EB6)	0.959 ± 0.02	0.973 ± 0.013
UniProt Q96QG7 and related entries	1.09 ± 0.12	1.1 ± 0.072
UniProt Q96HH6 and related entries	1.03 ± 0.06	1.07 ± 0.0045

Target	NP40-soluble protein abundance (concentration: 0.1mM)	NP40-soluble protein abundance (concentration: 0.5mM)
UniProt Q96QZ7 and related entries	1.009 ± 0.002	1.11 ± 0.022
UniProt Q96MH6 and related entries	1.12 ± 0.044	1.1 ± 0.077
CRAMP1 (UniProt Q96RY5)	0.94 ± 0.033	0.951 ± 0.23
OSBPL9 (UniProt Q96SU4)	1.01 ± 0.039	1.03 ± 0.025
UniProt Q96BX8	1.02 ± 0.061	1.01 ± 0.052
MCEE (UniProt Q96PE7)	0.937 ± 0.026	0.95 ± 0.037
ZFR (UniProt Q96KR1)	0.99 ± 0.053	1.01 ± 0.071
C8orf37 (UniProt Q96NL8)	0.909 ± 0.073	0.88 ± 0.079
UniProt Q96EE3 and related entries	1.05 ± 0.051	1.05 ± 0.016
MARS2 (UniProt Q96GW9)	1.02 ± 0.071	0.971 ± 0.063
UniProt Q96HI0 and related entries	0.983 ± 0.04	0.9728 ± 0.007
UniProt Q96PU8 and related entries	0.957 ± 0.039	0.953 ± 0.056
UniProt Q96T21 and related entries	0.947 ± 0.038	0.967 ± 0.081
UniProt Q96GM5 and related entries	0.9946 ± 0.0057	1.05 ± 0.034
STRBP (UniProt Q96SI9)	0.974 ± 0.034	0.985 ± 0.053
MRRF (UniProt Q96E11)	0.97 ± 0.036	0.869 ± 0.12
UniProt Q96ES7	0.949 ± 0.073	0.964 ± 0.099
SIN3A (UniProt Q96ST3)	1.03 ± 0.053	1.04 ± 0.048
UniProt Q96EK5	1 ± 0.043	0.973 ± 0.034
VCPIP1 (UniProt Q96JH7)	1.03 ± 0.02	1.03 ± 0.039
UniProt Q96G28	0.961 ± 0.034	0.941 ± 0.029
MRPS24 (UniProt Q96EL2)	0.983 ± 0.081	1 ± 0.057
UniProt Q96PV6-2	0.986 ± 0.02	1.05 ± 0.027
UniProt Q96FH0 and related entries	0.831 ± 0.086	0.858 ± 0.0099

A few values from the results shown.
SIN3A (UniProt Q96ST3) – NP40-soluble protein abundance (concentration: 0.1mM): 1.03 ± 0.053
UniProt Q96T21 and related entries – NP40-soluble protein abundance (concentration: 0.1mM): 0.947 ± 0.038
OSBPL9 (UniProt Q96SU4) – NP40-soluble protein abundance (concentration: 0.1mM): 1.01 ± 0.039
MRPS24 (UniProt Q96EL2) – NP40-soluble protein abundance (concentration: 0.1mM): 0.983 ± 0.081
UniProt Q96ES7 – NP40-soluble protein abundance (concentration: 0.5mM): 0.964 ± 0.099
MRRF (UniProt Q96E11) – NP40-soluble protein abundance (concentration: 0.5mM): 0.869 ± 0.12
UniProt Q96EK5 – NP40-soluble protein abundance (concentration: 0.1mM): 1 ± 0.043
